Measured values as given in PubChem BioAssay AID504467 (National Center for Advancing Translational Sciences (NCATS), 2011).
Hit rate of the full screen: of about 330,000 compounds, about 7,700 (2.3%) were called active. The shares of active, inactive and inconclusive entries below differ from those in the screen. The call rests on the fitted dose curve; in most records, active means well fitted inhibition curve with a large enough effect; inconclusive means small, poorly fitted or top-dose-only effect, or effect the other way; inactive means flat fitted curve, though single readings scatter. A potency beside an inconclusive call is a rough fit, not a confirmed value.
Potency means the concentration at half of the fitted maximal effect.

Assay: qHTS screen for small molecules that inhibit ELG1-dependent DNA repair in human embryonic kidney (HEK293T) cells expressing luciferase-tagged ELG1; further: nearly all actives have a fitted effect of over 55% in size
Settings: HEK293T ELG1-luciferase reporter, luminescence, 16 h, DNA damage induced by 5-fluorouridine; series mostly up to 46.1 µM
How it was run: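 DMSO vehicle served as the neutral condition. Each well held 2,000 cells given 5-fluorouridine plus compound; after 16 hr at 37 °C/5% CO2, ONE-Glo was added and luciferase measured 30 min later.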
With `O=C(CSc1nn(-c2ccc(Cl)cc2)c(=S)s1)N1CCN(C(=O)c2ccco2)CC1` the Potency was inconclusive: 18.4 µM [inhibitor, single point].
In the case of `COC(=O)CCCC1=CC2=CC(=O)C(C)(OC(=O)c3cccs3)C(=O)C2=CN1C1CC1` (stereo unspecified), the Potency is reported as “inactive”.
With `COc1cc(CC(=O)NCCCc2ccccc2)cc(OC)c1OC` the Potency was “inactive”.
In the case of `COc1ccc(OC)c(NC2=C(Cl)C(=O)N(Cc3ccccc3)C2=O)c1`, the Potency is reported as inconclusive: 29.1 µM [inhibitor, single point].
For `CC(C)CCC(CCNCc1ccccn1)c1ccc2c(c1)OCO2` (stereo unspecified), the Potency was “inactive”.
With `CCNC(=O)NC(=O)COC(=O)c1ccccc1SCC(=O)NC(=O)NCC` the Potency was inconclusive: 1.84 µM [activator, partial curve].
In the case of `COc1cc(Br)c(C(C)NC(=O)c2cccc(Br)c2)cc1OC` (stereo unspecified), the Potency is reported as “inactive”.
With `Cc1cc(CCN2CCC(=O)NC2=O)ccc1OC(C)C` the Potency was inconclusive: 14.1 µM [activator, single point].
With `C=CCNC(=S)Nc1ccc(Cl)cc1` the Potency was “inactive”.
For `NS(=O)(=O)c1ccc(CNC(=O)C2CCCN2C(=O)c2cccs2)cc1` (stereo unspecified), the Potency was inconclusive: 23.1 µM [activator, single point].
In the case of `Cn1c(C(=O)Nc2ccc3c(c2)OCCO3)cc2c(=O)n(C)c3ccccc3c21`, the Potency is reported as inconclusive: 23.1 µM [inhibitor, single point].
In the case of `O=C1CCc2cc(S(=O)(=O)N3CCN(c4ccccc4F)CC3)ccc2N1`, the Potency is reported as inconclusive: 9.2 µM [inhibitor, partial curve].
For `O=C(Nc1nccs1)c1ncc(Cl)c(Cl)c1Cl`, the Potency was inconclusive: 5.8 µM [inhibitor, full curve].
In the case of `CC1(C)CC2CC(C)(CN2S(=O)(=O)c2ccc(C(=O)Nc3cccc(S(=O)(=O)N4CCOCC4)c3)cc2)C1` (stereo unspecified), the Potency is reported as inconclusive: 23.1 µM [activator, partial curve, poor fit].
For `O=C(Cc1cccc(NC(=O)C2CCCN(C(=O)C3CCCCC3)C2)c1)Nc1cccc(C(=O)N2CCCC2)c1` (stereo unspecified), the Potency was inconclusive: 14.6 µM [inhibitor, partial curve].
In the case of `O=C(Nc1ccncc1)c1cc(S(=O)(=O)N2CCCC2)ccc1Cl`, the Potency is reported as “inactive”.
In the case of `O=C(Oc1ccc[nH]c1=O)c1cccc(Cl)c1`, the Potency is reported as inconclusive: 25.9 µM [inhibitor, partial curve, poor fit].
With `COc1ccc(N2CCN(C(=O)c3ccc(Oc4ccc(C(F)(F)F)cn4)cc3)CC2)cc1` the Potency was inconclusive: 1.16 µM [activator, single point].
For `Cn1c(Oc2ccccc2NCc2cc(Br)ccc2O)cc(=O)n(C)c1=O`, the Potency was inconclusive: 20.6 µM [inhibitor, single point].
For `CCOC(=O)C1=C(C)N(CCO)C(=O)NC1c1cccc(O)c1` (stereo unspecified), the Potency was inconclusive: 32.6 µM [activator, partial curve, poor fit].
With `COc1ccc(NC(=O)c2ccc(Cl)c(S(=O)(=O)N3CC(C)OC(C)C3)c2)cn1` (stereo unspecified) the Potency was inconclusive: 15.8 µM [inhibitor, partial curve, poor fit].
For `COc1ccc(-c2nnc(SCC(=O)N3CCCc4ccccc43)o2)cc1OC`, the Potency was inconclusive: 25.9 µM [inhibitor, single point].
For `Cc1ccc2c(c1)nnn2C1CCN(CC(=O)N2c3ccccc3CC2C)CC1` (stereo unspecified), the Potency was inconclusive: 11.2 µM [inhibitor, partial curve, poor fit].
For `O=C(CN1CCC(n2nnc3cc(F)ccc32)CC1)N1CCCc2ccccc21`, the Potency was inconclusive: 29.1 µM [inhibitor, single point].
With `COc1ccccc1Nc1ccc(C(=O)NCc2cccs2)cn1` the Potency was inconclusive: 32.6 µM [inhibitor, partial curve, poor fit].
For `O=C(NCc1ccccn1)c1ccc(OC2CCN(Cc3ccc(CO)o3)CC2)cc1`, the Potency was “inactive”.
In the case of `Cc1c(-c2nc(N)nc(Nc3ccccc3F)n2)oc2ccccc12`, the Potency is reported as inconclusive: 2.31 µM [activator, partial curve].
In the case of `O=C(CCCCn1c(=O)c2ccccc2n(CC(=O)Nc2ccc(F)cc2)c1=O)NCc1ccco1`, the Potency is reported as active: 20.6 µM.
With `CCOC(=O)C1=C(C)N(CC(C)C)C(=O)/C1=C\c1ccc(OCC(=O)Nc2ccccc2)cc1` the Potency was inconclusive: 23.1 µM [inhibitor, single point].
For `Cc1nc(Nc2ccc(S(=O)(=O)N3CCCCC3C)cc2)c2nnn(Cc3ccccc3)c2n1` (stereo unspecified), the Potency was active: 7.31 µM.
With `Cc1ccc(NC(=O)CN2CCC(NC(=O)C3CCCCC3)CC2)c(Br)c1` the Potency was inconclusive: 29.1 µM [inhibitor, single point].
In the case of `O=C(c1cc2cc(Cl)ccc2[nH]1)N1CCc2ccccc2C1`, the Potency is reported as inconclusive: 13 µM [activator, partial curve, poor fit].
In the case of `CN(C)S(=O)(=O)c1cc(NC(=O)CSc2cccc[n+]2[O-])ccc1Cl`, the Potency is reported as “inactive”.
For `N/C(=N\OC(=O)COc1ccccc1Cl)c1ccccn1`, the Potency was inconclusive: 6.51 µM [activator, partial curve].
In the case of `O=C(c1ccco1)N1CCN(C(=O)C2CC(c3ccc(Cl)c(Cl)c3)=NO2)CC1` (stereo unspecified), the Potency is reported as inconclusive: 23.1 µM [inhibitor, single point].
With `CC(=O)c1ccc(C(=O)N2CCc3c([nH]c4ccccc34)C2c2cccc(C)n2)s1` (stereo unspecified) the Potency was inconclusive: 9.2 µM [inhibitor, partial curve, poor fit].
For `COc1ccccc1P(=O)(c1ccccc1)c1ccccc1`, the Potency was inconclusive: 20 µM [activator, partial curve, poor fit].
For `CC(C)CNC(=O)c1cccc(NC(=O)c2ccc(NC(=O)c3ccco3)cc2)c1`, the Potency was inconclusive: 20.6 µM [inhibitor, single point].
For `Oc1ccc(CN2CCCCC2)c2cccnc12`, the Potency was inconclusive: 20.6 µM [inhibitor, single point].
For `CCN(CC)c1ccc(NC(=O)c2cc(Cl)ccc2OC)cc1`, the Potency was “inactive”.
With `COc1ccc(C(C(=O)NCC2CCCO2)N(Cc2cccs2)C(=O)c2snc(C(N)=O)c2N)cc1` (stereo unspecified) the Potency was inconclusive: 7.3 µM [inhibitor, partial curve].
For `N#CC(=C1CCCC1)c1nc(-c2ccccc2)cs1`, the Potency was inconclusive: 7.94 µM [activator, partial curve].
With `COc1ccccc1CNc1cc(CSc2ccc(Cl)cc2)nc(C)n1` the Potency was inconclusive: 29.1 µM [inhibitor, single point].
For `Cc1cc(-c2ccccc2)c2c3c(c(-c4ccccc4)n2n1)c(=O)n(C)c(=O)n3C`, the Potency was inconclusive: 4.11 µM [inhibitor, single point].
With `COc1ccc(C(=O)NC(C)c2cccnc2)cc1S(=O)(=O)N(C)Cc1ccccc1` (stereo unspecified) the Potency was inconclusive: 4.11 µM [inhibitor, partial curve, poor fit].
In the case of `Cc1ccccc1/C=C/c1cccc[n+]1C`, the Potency is reported as “inactive”.
In the case of `CCOc1ccc(OCc2ccc(C(=O)OCc3ccccn3)o2)cc1`, the Potency is reported as inconclusive: 1.3 µM [activator, partial curve].
For `Cc1ccc2nc(-c3ccc(N)cc3)sc2c1`, the Potency was inconclusive: 0.206 µM [activator, full curve].
For `COc1ccc(CCNC(=O)c2ccccc2NC(=O)CN2CCN(c3ccccc3O)CC2)cc1`, the Potency was active: 5.17 µM.
In the case of `Cn1nc(C(=O)Nc2ccccc2N2CCCC2)c2ccccc2c1=O`, the Potency is reported as inconclusive: 16.4 µM [inhibitor, single point].
In the case of `O=C(NCCSCc1ccco1)c1ccc(CN2CCOCC2)cc1`, the Potency is reported as inconclusive: 20.6 µM [activator, single point].
In the case of `O=[N+]([O-])c1ccc(-c2cn(-c3ccccc3F)c(=S)[nH]2)cc1`, the Potency is reported as inconclusive: 16.4 µM [activator, partial curve].
For `COc1ccc(OC)c(S(=O)(=O)N(C)CC(=O)N2CCN(c3cccc(Cl)c3)CC2)c1`, the Potency was inconclusive: 18.4 µM [inhibitor, partial curve, poor fit].
In the case of `CCOC(=O)C(Cc1ccccc1)c1ccnc2nc(N)nn12` (stereo unspecified), the Potency is reported as inconclusive: 18.3 µM [activator, partial curve, poor fit].
In the case of `Clc1cccc2c3c([nH]c12)CCNC3`, the Potency is reported as inconclusive: 11.6 µM [activator, partial curve, poor fit].
With `O=C(O)c1ccc(N/N=C/c2ccc(-c3ccccc3)cc2)cc1` the Potency was inconclusive: 2.91 µM [activator, full curve].
With `O=C(Nc1ccc(Cc2ccncc2)cc1)C1CCC(N2C(=O)C3C4C=CC(C5CC45)C3C2=O)CC1` (stereo unspecified) the Potency was active: 8.2 µM.
For `O=C(OCC(=O)c1ccc[nH]1)c1cncc(Br)c1`, the Potency was inconclusive: 20.6 µM [inhibitor, partial curve, poor fit].
With `O=C(Nc1ccc(OCC(=O)N2CCOCC2)cc1)c1cc(F)c(F)cc1Cl` the Potency was inconclusive: 13 µM [activator, partial curve, poor fit].
With `CCCSc1nnc(NC(=O)Nc2ccc(C)cc2)s1` the Potency was “inactive”.
For `CNC(=O)c1cccn1-c1ccsc1C(=O)OC`, the Potency was “inactive”.
With `C=CCOc1ccc(CNc2ccc(NC(=O)CC(C)C)cc2)cc1OC` the Potency was inconclusive: 1.16 µM [activator, single point].
With `COc1ccc(N(CC(C)C)S(=O)(=O)c2nnc(NC(=O)CC(C)C)s2)cc1` the Potency was “inactive”.
For `CCn1c(=O)c(C(=O)NCc2cccnc2)c(O)c2ccccc21`, the Potency was inconclusive: 1.16 µM [activator, single point].
In the case of `Cc1onc(-c2ccccc2)c1C(=O)N(Cc1ccco1)Cc1cccs1`, the Potency is reported as “inactive”.
With `Cc1ccc(C(=O)Nc2ccc3cn[nH]c3c2)cc1S(=O)(=O)N1CCCCC1` the Potency was inconclusive: 2.91 µM [activator, partial curve, poor fit].
